Where a name gives a salt, the structure may show the parent alone. This is one part of the list. Hit calls seldom repeat between salt and free forms of one compound.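 In K562 cells expressing nanoluciferase-fused kinases, luminescence was recorded at 4 h intervals between 2 and 18 h, normalized as percent of control with DMSO at 100% and a positive control at 0%. A significant (2 sigma) signal drop marks a time point as decreased. The authors' rule for a hit is not shown and takes in more than the number of time points.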
biological target: BLK (UniProt P51451); test: kinase-Nluc reporter destabilization hit call (1 = scored as downregulated) (binary); higher = compound decreases kinase abundance; conditions: K562; 2-18 h

Protein sequences, listed by entry. Tags and fused reporters are not part of them. Lines headed by an entry give the natural chain unless they say otherwise; changes in a name come on top.
UniProt P51451: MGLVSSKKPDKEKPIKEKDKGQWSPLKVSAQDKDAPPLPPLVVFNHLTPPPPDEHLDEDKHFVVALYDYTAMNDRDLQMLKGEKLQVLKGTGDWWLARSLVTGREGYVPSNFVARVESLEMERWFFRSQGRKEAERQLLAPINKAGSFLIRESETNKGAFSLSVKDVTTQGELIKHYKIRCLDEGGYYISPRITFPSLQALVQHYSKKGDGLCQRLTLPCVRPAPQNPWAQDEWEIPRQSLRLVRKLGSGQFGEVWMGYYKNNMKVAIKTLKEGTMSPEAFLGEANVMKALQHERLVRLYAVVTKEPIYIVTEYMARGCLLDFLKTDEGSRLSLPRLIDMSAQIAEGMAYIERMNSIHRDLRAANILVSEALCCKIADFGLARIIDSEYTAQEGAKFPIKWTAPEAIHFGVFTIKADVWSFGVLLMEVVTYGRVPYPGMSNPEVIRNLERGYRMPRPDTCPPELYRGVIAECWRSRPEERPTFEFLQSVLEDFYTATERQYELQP
UniProt P51813: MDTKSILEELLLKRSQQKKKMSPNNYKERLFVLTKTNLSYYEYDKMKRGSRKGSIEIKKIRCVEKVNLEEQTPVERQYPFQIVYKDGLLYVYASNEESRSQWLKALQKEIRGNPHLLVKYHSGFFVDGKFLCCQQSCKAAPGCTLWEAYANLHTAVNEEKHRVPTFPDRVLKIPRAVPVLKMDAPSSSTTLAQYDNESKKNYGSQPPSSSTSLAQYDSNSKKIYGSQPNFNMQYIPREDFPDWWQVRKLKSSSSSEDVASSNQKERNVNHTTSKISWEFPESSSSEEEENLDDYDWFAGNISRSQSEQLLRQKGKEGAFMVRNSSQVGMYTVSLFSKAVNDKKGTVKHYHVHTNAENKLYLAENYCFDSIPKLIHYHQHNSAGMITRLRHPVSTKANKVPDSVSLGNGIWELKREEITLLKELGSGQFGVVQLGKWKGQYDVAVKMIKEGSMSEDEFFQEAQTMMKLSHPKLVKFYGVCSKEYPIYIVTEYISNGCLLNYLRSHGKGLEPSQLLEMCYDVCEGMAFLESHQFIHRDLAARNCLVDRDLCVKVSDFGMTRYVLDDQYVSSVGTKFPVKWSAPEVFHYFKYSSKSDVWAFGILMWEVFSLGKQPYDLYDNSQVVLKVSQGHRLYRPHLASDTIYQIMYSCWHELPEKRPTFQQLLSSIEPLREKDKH

kinase-Nluc reporter destabilization hit call, inactive:
Cc1c(-c2c(F)cc(C(N)=O)c3[nH]c4c(c23)CC[C@H](C(C)(C)O)C4)cccc1-n1c(=O)c2cccc(F)c2n(C)c1=O (2.5 µM) 0
c1cncc(CN2CCC(n3ncc4c(N5CCOCC5)nc(-c5ccc6[nH]ccc6c5)nc43)CC2)c1 (10 µM) 0
Cc1cccc(-c2[nH]ncc2-c2ccc(F)c(-c3cnn(CCO)c3)c2)n1 (10 µM) 0
COc1cc2nccc(Oc3ccc(NC(=O)NC4CC4)c(Cl)c3)c2cc1C(N)=O [Lenvatinib (mesylate)] (10 µM) 0
COc1cc2c(N3CCN(C(=O)Nc4ccc(OC(C)C)cc4)CC3)ncnc2cc1OCCCN1CCCCC1 [Tandutinib] (10 µM) 0
COc1cccc(OC)c1C(=O)OCc1cc(O)ccc1O[C@@H]1O[C@H](CO)[C@@H](O)[C@H](O)[C@H]1O [Curculigoside] (10 µM) 0
CNC(=O)c1ccc(C)c(-n2c(C)cc(OCc3ccc(F)cc3F)c(Br)c2=O)c1 (10 µM) 0
C=CC(=O)Nc1cc(C)ccc1Nc1nc(Nc2cc(OC)ncc2C)ncc1C(F)(F)F (10 µM) 0
CC(=O)NC1CC(n2cnc(NC(=O)Cc3ccc4ccccc4c3)c2)C1 (configuration not stated) (10 µM) 0

biological target: BMX (UniProt P51813); test: as above; conditions: K562; 2-18 h

kinase-Nluc reporter destabilization hit call, inactive:
COc1cc2nccc(Oc3ccc(NC(=O)NC4CC4)c(Cl)c3)c2cc1C(N)=O [Lenvatinib] (10 µM) 0
COc1ccc2c(OCc3nnc4ccc(-c5ccccc5)nn34)ccnc2c1 (2 µM) 0
COc1cc2ncnc(Nc3ccc(Cl)cc3F)c2cc1OC (10 µM) 0
N#Cc1c(C2CCNCC2)cc(-c2c(O)cccc2OCC2CC2)nc1N [ACHP (Hydrochloride)] (10 µM) 0
CNC(=O)c1c(F)cccc1Nc1nc(Nc2cc3c(cc2OC)CCN3C(=O)CN(C)C)nc2[nH]ccc12 (10 µM) 0
COc1cc2c(N3CCN(C(=O)Nc4ccc(OC(C)C)cc4)CC3)ncnc2cc1OCCCN1CCCCC1 [Tandutinib (hydrochloride)] (10 µM) 0
CN1CCN(c2cccc(Nc3nc4c(-c5ccc(S(C)(=O)=O)cc5)cccn4n3)c2)CC1 (10 µM) 0
Cn1cc(-c2ccc3c(c2)CCN3C(=O)Cc2cccc(C(F)(F)F)c2)c2c(N)ncnc21 (2.5 µM) 0
O=Nc1c(-c2c(O)[nH]c3ccc(F)cc23)[nH]c2ccccc12 [5'-Fluoroindirubinoxime] (10 µM) 0
C=C(CC[C@@H](C(=O)O)[C@H]1[C@H](O)C[C@@]2(C)C3=C(CC[C@]12C)[C@@]1(C)CC[C@H](OC(C)=O)C(C)(C)[C@@H]1CC3)C(C)C [Pachymic acid] (10 µM) 0
Cc1cc(Nc2ncnc3ccc(NC4=NC(C)(C)CO4)cc23)ccc1Oc1ccn2ncnc2c1 [Tucatinib] (2.5 µM) 0
CCNc1nc(Nc2cc(F)c(C(=O)N3CCOCC3)cc2OC)ncc1C(F)(F)F [GNE-7915 (tosylate)] (10 µM) 0
Cc1ccc(C(=O)Nc2ccc(Oc3cc4cnn(C)c4cc3-c3cn[nH]c3)c(F)c2)c(=O)n1-c1ccc(F)cc1 [Merestinib dihydrochloride] (2.5 µM) 0
Nc1ncnc2c1c(-c1cccc(OCc3ccccc3)c1)cn2C1CC(CN2CCC2)C1 (configuration not stated) (2.5 µM) 0
Cn1cnc2c(F)c(Nc3ccc(Br)cc3Cl)c(C(=O)NOCCO)cc21 [Selumetinib (sulfate)] (10 µM) 0
Cc1cc(Nc2ncnc3ccc(NC4=NC(C)(C)CO4)cc23)ccc1Oc1ccn2ncnc2c1 [Tucatinib (hemiethanolate)] (2.5 µM) 0
Cc1cc2ncc(-c3ccc(O)c(O)c3)nc2cc1C [Tyrphostin AG1433] (10 µM) 0
CCN1CCN(Cc2ccc(Nc3ncc(F)c(-c4cc(F)c5nc(C)n(C(C)C)c5c4)n3)nc2)CC1 [Abemaciclib (methanesulfonate)] (10 µM) 0
Cn1cnc2c(F)c(Nc3ccc(Br)cc3Cl)c(C(=O)NOCCO)cc21 [Selumetinib] (10 µM) 0
S=C(SSC(=S)N1CCOCC1)N1CCOCC1 (10 µM) 0
Cn1nccc1Nc1nccc(-c2ccn([C@H](CO)c3ccc(Cl)c(F)c3)c(=O)c2)n1 [Ravoxertinib hydrochloride] (10 µM) 0
Cc1ccc(C(=O)Nc2ccc(Oc3cc4cnn(C)c4cc3-c3cn[nH]c3)c(F)c2)c(=O)n1-c1ccc(F)cc1 [Merestinib] (2.5 µM) 0
c1ccc(-c2[nH]ncc2-c2ccnc3ccccc23)nc1 (10 µM) 0
O=C(CSC1=NCCN1)NC1CCCCCC1 [ICCB-19 (hydrochloride)] (2.5 µM) 0
Cn1cc(-c2cnn3c(N)c(Br)c([C@@H]4CCCNC4)nc23)cn1 (2.5 µM) 0
O=C(Nc1cn[nH]c1-c1ccccn1)c1nn(C2CCNCC2)cc1Cl (10 µM) 0
Cc1nc(-c2cn3c(n2)-c2ccc(-c4cnn(C(C)(C)C(N)=O)c4)cc2OCC3)n(C(C)C)n1 [Taselisib] (10 µM) 0
O=C(NCCN1CCOCC1)c1cc2c(Oc3ccc(NC(=O)C4(C(=O)Nc5ccc(F)cc5)CC4)cc3)ccnc2[nH]1 [Tyrosine kinase inhibitor] (10 µM) 0
CN(CC(=O)N(Cc1ccc(C2CCCCC2)cc1)c1ccc(C(=O)NO)cc1)S(=O)(=O)c1c(F)c(F)c(F)c(F)c1F (2.5 µM) 0
Cc1c(-c2c(F)cc(C(N)=O)c3[nH]c4c(c23)CC[C@H](C(C)(C)O)C4)cccc1-n1c(=O)c2cccc(F)c2n(C)c1=O (2.5 µM) 0
c1cncc(CN2CCC(n3ncc4c(N5CCOCC5)nc(-c5ccc6[nH]ccc6c5)nc43)CC2)c1 (10 µM) 0
Cc1cccc(-c2[nH]ncc2-c2ccc(F)c(-c3cnn(CCO)c3)c2)n1 (10 µM) 0
COc1cc2nccc(Oc3ccc(NC(=O)NC4CC4)c(Cl)c3)c2cc1C(N)=O [Lenvatinib (mesylate)] (10 µM) 0
COc1cc2c(N3CCN(C(=O)Nc4ccc(OC(C)C)cc4)CC3)ncnc2cc1OCCCN1CCCCC1 [Tandutinib] (10 µM) 0
COc1cccc(OC)c1C(=O)OCc1cc(O)ccc1O[C@@H]1O[C@H](CO)[C@@H](O)[C@H](O)[C@H]1O [Curculigoside] (10 µM) 0
CNC(=O)c1ccc(C)c(-n2c(C)cc(OCc3ccc(F)cc3F)c(Br)c2=O)c1 (10 µM) 0
C=CC(=O)Nc1cc(C)ccc1Nc1nc(Nc2cc(OC)ncc2C)ncc1C(F)(F)F (10 µM) 0
CC(=O)NC1CC(n2cnc(NC(=O)Cc3ccc4ccccc4c3)c2)C1 (configuration not stated) (10 µM) 0

— the supplement of paper PMC12823440, “Inhibitors supercharge kinase turnover through native proteolytic circuits” (Nature, 2025)
